## Primary screen of a compound library

Amino acid sequences for entries named in this document (tags omitted). Residues count along the entry.
UniProt P9WNZ1, whole entry: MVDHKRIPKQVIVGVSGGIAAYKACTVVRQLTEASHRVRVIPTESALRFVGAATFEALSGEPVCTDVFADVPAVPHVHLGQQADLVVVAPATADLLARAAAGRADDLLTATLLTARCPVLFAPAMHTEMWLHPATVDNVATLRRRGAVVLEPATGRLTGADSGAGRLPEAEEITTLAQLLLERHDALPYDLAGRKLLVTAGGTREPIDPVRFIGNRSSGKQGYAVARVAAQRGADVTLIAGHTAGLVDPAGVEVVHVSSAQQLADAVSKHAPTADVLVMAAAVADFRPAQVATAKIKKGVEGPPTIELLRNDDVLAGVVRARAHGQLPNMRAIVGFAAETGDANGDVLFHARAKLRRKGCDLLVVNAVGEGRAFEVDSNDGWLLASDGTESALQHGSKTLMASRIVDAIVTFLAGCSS
UniProt A4I591, 1-473: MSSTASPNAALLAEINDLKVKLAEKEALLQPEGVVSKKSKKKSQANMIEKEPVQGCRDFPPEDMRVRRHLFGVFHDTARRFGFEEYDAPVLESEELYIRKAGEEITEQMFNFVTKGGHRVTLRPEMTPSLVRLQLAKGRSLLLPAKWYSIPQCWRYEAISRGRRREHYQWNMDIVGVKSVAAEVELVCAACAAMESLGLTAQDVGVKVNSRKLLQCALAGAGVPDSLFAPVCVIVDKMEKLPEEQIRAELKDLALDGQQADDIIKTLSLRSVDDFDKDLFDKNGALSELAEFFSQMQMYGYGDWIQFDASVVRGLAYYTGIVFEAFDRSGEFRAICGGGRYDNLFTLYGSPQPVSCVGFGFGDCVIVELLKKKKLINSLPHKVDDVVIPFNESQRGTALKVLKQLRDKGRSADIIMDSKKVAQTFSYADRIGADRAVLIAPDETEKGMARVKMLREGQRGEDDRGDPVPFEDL

Data taken from ChEMBL document CHEMBL3988442, “University of Dundee, Small-Polar-MMV Screening Library” (2021).

Each number is a percent effect as filed.
The controls that fix the scale are not given in the record; negative values are as filed.
Compounds were drawn at random from those tested, without regard to their results.
Two or more numbers in one place are separate tests of the same structure; such repeats can differ widely.

A: 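Coenzyme A biosynthesis protein CoaBC, Mycobacterium tuberculosis (UniProt P9WNZ1). Enzyme assay of CoaBC with a phosphate dye (Biomol Green) read at 650 nm. Compounds at 30 µM. Higher reads as stronger inhibition, judged from the few compounds that gave an IC50. Most strong results did not repeat in a second test. Of about 67,000 compounds tested this way, about 40 (0.06%) reached 50% or more in at least one test.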
B: 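Enzyme assay of histidyl-tRNA synthetase; the read-out is not stated. Target: Histidine-tRNA ligase, Leishmania infantum (UniProt A4I591). Compounds at 30 µM. Direction is inferred from retests: higher values go with stronger inhibition. The assay is labelled LdHisRS but filed under L. infantum. Size under these conditions: about 69,000 compounds, about 410 of them at 50% or above in at least one test.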
C: 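Cell assay of Leishmania donovani living inside macrophages; the read-out is not stated. Concentration: 30 µM. Direction is inferred from retests: higher values go with stronger inhibition. Of about 69,000 compounds tested this way, about 1,000 (1.5%) reached 50% or more in at least one test.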

Result for Cc1noc(C)c1CN1CC[C@H](OCC2CC2)[C@@H](Cc2ccccc2)C1 was A: 1.015%; B: 29.41%; C: -24.77%. Result for Fc1ccc(C2(c3noc(CCN4CCCCO4)n3)CCOC2)cc1 (centres undefined) was A: 2.642%; B: 14.16%; C: -0.9498%. With CNC(=O)[C@@H](c1ccccc1OC)N1CCC[C@H]1C(=O)NC1CC1 the screen gave A: 5.161%; B: 25%. CCCc1cc(NCc2nc(COC)no2)n2nccc2n1 gave A: 1.099%; B: 8.571%; C: 2.232%. CCOC(=O)C1(CCOC)CCN(Cc2nccn2CC)CC1 read A: 11.57%; B: 5.333%; C: 12.73%.

Result for Cc1nnc(N2CCC(NS(C)(=O)=O)CC2)c(C#N)c1C was A: -11.02%; B: 23.14%; C: -9.969%. CCn1ccnc1CN(C)C1CCCN(CCCc2ccccc2)C1 (centres undefined) read A: 3.016%; B: 0.8%; C: 21.95%. CN(C)Cc1ccnc(C2CCCN2Cc2cc[nH]n2)n1 (centres undefined) gave A: -13.89%; B: 5.556%; C: -15.25%. For Cc1nc(C)c(C(=O)NCCNC(=O)c2ccc(F)cc2F)s1 the result was A: 9.444%; B: 24.62%; C: 31.27%. O=C(c1cccnc1)N1CCN2C(=O)N(Cc3ccc(F)cc3)C[C@H]2C1 read A: 4.74%; B: 16.67%.

For Cc1nc(C)n(C2CCCN(C(=O)c3cscn3)C2)n1 (centres undefined) the result was A: -5.239%; B: 9.649%; C: 2.965%. With O=C(NCc1cncc2c1CCN(Cc1ccccc1)C2)C1CC1 the screen gave A: -4.126%; B: 0%. COCCN1CC(=O)c2sc(NCc3ccccc3)nc2C1 gave A: 2.289%; B: 17.14%; C: 1.366% & 6.658%. CN(C)S(=O)(=O)N1CCC(C)(c2ncc(C(N)=O)s2)CC1 read A: 1.865%; B: 9.929%; C: -24.23%. COc1cc(C(=O)O)ccc1OCC(=O)NC(C)c1ccc(F)cc1 (centres undefined) read A: 3.748%; B: 12.12%; C: 9.898%.

CS(=O)(=O)N1C[C@@H]2OCC(=O)N(CC3CCC3)[C@@H]2C1 read A: 3.386%; B: 8.333%. With CC1CCN(c2cc(CCC3CCCN3)ncn2)CC1 (centres undefined) the screen gave A: 2.941%; B: 21.88%. NC(=O)C1CCN(c2cncc(-n3cccn3)n2)CC1 gave A: 5.159%; B: 11.61%; C: -17.14%. With N[C@@H]1c2ccccc2C2(CCN(c3cccc(C(F)(F)F)n3)CC2)[C@H]1O the screen gave A: -3.418%; B: 18.07%; C: 17.32%. With CC(=O)N1CCC2(CCN(C(=O)c3ccc(F)c(C(F)(F)F)c3)CC2)C1 the screen gave A: -3.782%; B: 1.818%; C: 21.77%.

With O=c1ccc2c(n1Cc1cccnc1)CCC(NCc1cccnc1)C2 (centres undefined) the screen gave B: 17.24%; C: 25.86%. Result for O=C1CO[C@@H]2CN(CC3CCOCC3)C[C@H]2N1CC1CC1 was A: 6.427%; B: 9.023%. For CN(C)S(=O)(=O)N1C[C@@H]2CC[C@H](C1)N(Cc1ccc(F)c(F)c1)C2 the result was A: 0.8485%; B: 11.29%. For CCCC(C)NCc1cccnc1N1CCN(c2ccccn2)CC1 (centres undefined) the result was A: 5.481%; B: 13.98%; C: -0.07964%. With O=C1NC(c2ccccc2)=N[C@@]12CC[C@@H]1CN(CC3CC3)C[C@@H]12 the screen gave A: 4.516%; B: 25%.

With [H][C@]12CC[C@]([H])(CN(S(=O)(=O)N(C)C)C1)N(C(=O)c1cc(C(C)C)oc1C)C2 the screen gave C: -20.4%. For O=C(Cn1cc(I)cn1)N1CCNC1=O the result was A: 9.159%; B: 10.84%; C: 37.34%. Cn1ncc2c(=O)[nH]c(CN3CCCC3c3cccc(F)c3)nc21 (centres undefined) gave A: 10.46%; B: 21.82%; C: 32.46%. For CCCn1[nH]cc/c1=N\C(=O)CN1CCc2cnc(CC)nc2C1 the result was A: 4.824%; B: 14.86%; C: -30.61%. With O=C(O)C(F)(F)F.O=C(O)C(F)(F)F.[H][C@@]12CN(Cc3ccc(F)cc3)C[C@]1([H])C(=O)N(CCN1CCCC1)C2 the screen gave C: 6.703%.

With COc1cccc(C2(C(=O)NC3CCc4nccn4C3)CCCC2)c1 (centres undefined) the screen gave A: -9.917%; B: 16.96%; C: 29.89%. Result for Cc1cc(C)n(CC2CCCN2C(=O)c2cccc3c2OCCO3)n1 (centres undefined) was A: 10.59%; B: 20.18%; C: 18.19%. CCc1nc(C2CCCN2CC(=O)Nc2sc(C)c(C)c2C)no1 (centres undefined) read A: -2.651%; B: 13.7%; C: 25.61%. Cc1ccc(-c2nc(CN3CCc4cnc(C)nc4C3)no2)cc1 gave A: -2.045%; B: 21.43%; C: -58.31%. Result for Cc1nc(CN2CCCC(N(C)CC(=O)Nc3cccnc3)C2)no1 (centres undefined) was A: 14.04%; B: 11.57%; C: 7.156%.

O=C(c1ccc(-c2cccc3c2CCNC3)o1)N1CCCC1 gave A: -35.71%; B: 32.79%; C: -4.309%. With CC(C)NC(=O)N1CC[C@@H](N(C)C)[C@@H]1Cc1ccccc1 the screen gave A: -1.018%; B: 7.895%. Cc1cc(C(=O)N2CCCN(c3nccs3)CC2)c(C)n1C(C)C gave A: 12.5%; B: 7.692%; C: 10.97%. O=C(Cc1ccon1)N1CCc2cc(Br)sc2C1 gave A: 2.254%; B: 12.86%; C: 12.41%. Result for CN1CCOC(CNCc2cccc(OCC(F)(F)F)c2)C1 (centres undefined) was A: 1.542%; B: -37.08%; C: 37.31%.

For CCN(CC)C(=O)Nc1cc2c(cc1SC)OCCO2 the result was A: 5.59%; B: 9.615%; C: 10.66%. With CCc1nc(C)sc1CNC1CCN(Cc2ccccc2)C1 (centres undefined) the screen gave A: 1.845%; B: 12.9%; C: -5.702%. CC(C)(NC(=O)c1ccc(-c2ccc(F)cc2)s1)C(N)=O gave A: 1.684%; B: 21.51%; C: 18.83%. For Clc1cccc(OCCCN2CCOC(Cn3cncn3)C2)c1 (centres undefined) the result was A: -7.578%; B: 7.018%; C: 18.78%.